Some of the results follow. Most values lie at the level of the controls, where differences are scatter.

The chains behind the UniProt entries cited, without tags or fusion partners. Where a name states a change or a piece, a line headed by the entry shows the natural chain unless it says otherwise.
UniProt Q9CY28: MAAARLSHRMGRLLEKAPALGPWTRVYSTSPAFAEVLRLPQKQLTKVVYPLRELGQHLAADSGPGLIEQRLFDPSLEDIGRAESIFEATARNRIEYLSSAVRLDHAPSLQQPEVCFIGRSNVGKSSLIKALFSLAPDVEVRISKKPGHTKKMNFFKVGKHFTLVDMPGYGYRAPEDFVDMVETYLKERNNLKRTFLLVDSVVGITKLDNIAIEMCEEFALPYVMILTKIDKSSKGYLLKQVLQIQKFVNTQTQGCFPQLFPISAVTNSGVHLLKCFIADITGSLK
UniProt Q9D0D4: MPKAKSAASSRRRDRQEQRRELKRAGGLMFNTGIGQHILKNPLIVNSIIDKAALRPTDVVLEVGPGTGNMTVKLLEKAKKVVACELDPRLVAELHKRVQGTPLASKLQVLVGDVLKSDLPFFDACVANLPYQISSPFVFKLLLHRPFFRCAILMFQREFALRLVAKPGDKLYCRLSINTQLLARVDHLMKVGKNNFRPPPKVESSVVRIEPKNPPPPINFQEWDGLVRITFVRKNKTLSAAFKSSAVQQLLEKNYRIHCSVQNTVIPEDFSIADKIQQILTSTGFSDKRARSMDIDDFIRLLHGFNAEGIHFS
UniProt Q9CS42: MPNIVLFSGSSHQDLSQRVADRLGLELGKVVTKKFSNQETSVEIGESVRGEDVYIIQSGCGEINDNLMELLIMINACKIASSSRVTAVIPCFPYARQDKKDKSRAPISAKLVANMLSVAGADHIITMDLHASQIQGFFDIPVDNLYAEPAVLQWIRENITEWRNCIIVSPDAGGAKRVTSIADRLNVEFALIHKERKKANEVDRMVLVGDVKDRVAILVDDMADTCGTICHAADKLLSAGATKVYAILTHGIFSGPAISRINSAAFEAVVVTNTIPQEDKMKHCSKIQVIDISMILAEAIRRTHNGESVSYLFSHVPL
UniProt Q9D0V8: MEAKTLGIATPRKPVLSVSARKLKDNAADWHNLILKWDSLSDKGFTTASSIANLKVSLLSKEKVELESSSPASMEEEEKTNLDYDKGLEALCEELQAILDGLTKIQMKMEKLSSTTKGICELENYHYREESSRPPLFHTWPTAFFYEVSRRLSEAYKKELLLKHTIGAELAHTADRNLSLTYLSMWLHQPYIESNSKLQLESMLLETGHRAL
UniProt Q9CRC0: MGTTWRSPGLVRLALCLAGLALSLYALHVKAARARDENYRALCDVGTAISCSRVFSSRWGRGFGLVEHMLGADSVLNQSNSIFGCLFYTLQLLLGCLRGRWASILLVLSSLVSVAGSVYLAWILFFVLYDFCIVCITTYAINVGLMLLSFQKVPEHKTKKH
UniProt Q9CXT6: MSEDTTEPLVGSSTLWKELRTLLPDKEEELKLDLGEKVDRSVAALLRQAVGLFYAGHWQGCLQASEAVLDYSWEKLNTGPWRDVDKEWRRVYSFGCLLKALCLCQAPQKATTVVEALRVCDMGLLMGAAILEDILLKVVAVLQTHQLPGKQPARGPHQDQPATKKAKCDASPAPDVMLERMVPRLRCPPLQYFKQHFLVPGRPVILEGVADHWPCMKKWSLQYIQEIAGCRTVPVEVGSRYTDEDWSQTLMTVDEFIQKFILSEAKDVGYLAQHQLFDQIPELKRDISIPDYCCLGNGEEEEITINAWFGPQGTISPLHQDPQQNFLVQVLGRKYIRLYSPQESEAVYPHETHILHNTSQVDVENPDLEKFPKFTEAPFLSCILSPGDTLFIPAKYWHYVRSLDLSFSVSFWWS
UniProt Q9CWY3: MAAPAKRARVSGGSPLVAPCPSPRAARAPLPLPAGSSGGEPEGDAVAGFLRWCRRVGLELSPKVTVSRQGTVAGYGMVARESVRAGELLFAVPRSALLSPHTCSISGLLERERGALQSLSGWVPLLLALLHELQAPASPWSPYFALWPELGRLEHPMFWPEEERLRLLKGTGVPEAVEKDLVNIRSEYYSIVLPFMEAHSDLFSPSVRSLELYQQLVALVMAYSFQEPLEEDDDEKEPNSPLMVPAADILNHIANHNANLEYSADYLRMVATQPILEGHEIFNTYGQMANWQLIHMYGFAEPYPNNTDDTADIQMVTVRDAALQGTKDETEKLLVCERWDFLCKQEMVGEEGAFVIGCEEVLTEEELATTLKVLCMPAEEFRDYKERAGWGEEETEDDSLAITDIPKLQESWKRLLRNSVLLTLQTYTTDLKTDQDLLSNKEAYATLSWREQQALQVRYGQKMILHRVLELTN
UniProt Q9CX00, whole entry: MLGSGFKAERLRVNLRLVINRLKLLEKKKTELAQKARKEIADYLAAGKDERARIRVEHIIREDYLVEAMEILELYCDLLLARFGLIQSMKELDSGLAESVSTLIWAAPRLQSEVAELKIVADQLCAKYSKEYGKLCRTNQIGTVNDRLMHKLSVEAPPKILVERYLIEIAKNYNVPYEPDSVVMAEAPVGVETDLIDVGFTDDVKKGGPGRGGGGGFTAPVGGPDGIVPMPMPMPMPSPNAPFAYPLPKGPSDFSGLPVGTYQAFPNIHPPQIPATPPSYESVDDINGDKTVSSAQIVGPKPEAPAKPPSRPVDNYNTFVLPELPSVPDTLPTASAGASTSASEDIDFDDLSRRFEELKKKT
UniProt Q9CZT8: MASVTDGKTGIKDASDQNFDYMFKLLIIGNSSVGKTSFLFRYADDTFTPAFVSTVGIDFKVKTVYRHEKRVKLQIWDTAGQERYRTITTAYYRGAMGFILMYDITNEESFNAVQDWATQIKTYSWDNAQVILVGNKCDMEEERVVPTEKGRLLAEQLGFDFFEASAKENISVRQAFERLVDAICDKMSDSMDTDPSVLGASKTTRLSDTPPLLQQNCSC
UniProt Q9D0L1: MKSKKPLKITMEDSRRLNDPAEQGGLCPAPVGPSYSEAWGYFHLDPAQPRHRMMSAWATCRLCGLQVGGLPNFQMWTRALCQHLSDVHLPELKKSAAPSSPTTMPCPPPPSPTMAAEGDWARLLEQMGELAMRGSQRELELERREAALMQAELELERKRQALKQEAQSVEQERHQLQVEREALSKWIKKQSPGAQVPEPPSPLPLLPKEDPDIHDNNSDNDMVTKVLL
UniProt Q9D0F3: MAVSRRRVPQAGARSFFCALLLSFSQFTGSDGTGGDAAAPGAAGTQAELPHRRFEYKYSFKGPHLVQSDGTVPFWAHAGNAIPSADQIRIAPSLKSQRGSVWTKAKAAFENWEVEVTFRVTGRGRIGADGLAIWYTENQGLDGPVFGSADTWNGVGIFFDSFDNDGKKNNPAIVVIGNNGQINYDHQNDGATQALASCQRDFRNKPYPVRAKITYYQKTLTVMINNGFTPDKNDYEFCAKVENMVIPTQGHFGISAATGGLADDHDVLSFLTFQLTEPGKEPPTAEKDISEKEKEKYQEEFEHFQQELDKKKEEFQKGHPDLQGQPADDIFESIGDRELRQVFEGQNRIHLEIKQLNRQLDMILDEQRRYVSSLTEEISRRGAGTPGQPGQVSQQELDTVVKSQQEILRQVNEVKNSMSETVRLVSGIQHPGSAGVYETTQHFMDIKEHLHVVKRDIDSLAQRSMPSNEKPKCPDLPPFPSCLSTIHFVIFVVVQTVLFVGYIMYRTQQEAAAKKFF
UniProt Q9CXC3: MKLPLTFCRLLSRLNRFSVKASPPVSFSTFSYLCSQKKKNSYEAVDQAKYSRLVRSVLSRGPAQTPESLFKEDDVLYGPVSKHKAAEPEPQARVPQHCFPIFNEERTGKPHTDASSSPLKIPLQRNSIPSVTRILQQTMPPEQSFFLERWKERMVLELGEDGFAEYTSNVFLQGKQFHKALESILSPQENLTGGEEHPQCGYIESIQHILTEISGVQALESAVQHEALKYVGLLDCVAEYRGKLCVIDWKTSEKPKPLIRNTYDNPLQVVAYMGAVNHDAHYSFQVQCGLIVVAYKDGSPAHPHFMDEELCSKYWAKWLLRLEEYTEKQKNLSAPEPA
UniProt Q9CRA8, whole entry: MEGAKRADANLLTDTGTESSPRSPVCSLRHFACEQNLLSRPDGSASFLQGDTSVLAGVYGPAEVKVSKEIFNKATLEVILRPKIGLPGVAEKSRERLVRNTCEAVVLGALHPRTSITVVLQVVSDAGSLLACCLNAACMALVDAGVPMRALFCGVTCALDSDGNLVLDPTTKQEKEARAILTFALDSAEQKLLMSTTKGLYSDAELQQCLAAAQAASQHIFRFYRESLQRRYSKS
UniProt Q9CRC9: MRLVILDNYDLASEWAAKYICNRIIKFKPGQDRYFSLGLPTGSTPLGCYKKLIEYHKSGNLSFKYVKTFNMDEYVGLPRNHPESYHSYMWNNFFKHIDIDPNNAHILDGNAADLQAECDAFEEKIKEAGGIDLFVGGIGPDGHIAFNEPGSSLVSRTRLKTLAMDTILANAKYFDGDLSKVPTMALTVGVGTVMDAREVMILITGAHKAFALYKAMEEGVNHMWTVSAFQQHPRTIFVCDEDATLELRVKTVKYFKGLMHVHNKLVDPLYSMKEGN
UniProt Q9CSU0: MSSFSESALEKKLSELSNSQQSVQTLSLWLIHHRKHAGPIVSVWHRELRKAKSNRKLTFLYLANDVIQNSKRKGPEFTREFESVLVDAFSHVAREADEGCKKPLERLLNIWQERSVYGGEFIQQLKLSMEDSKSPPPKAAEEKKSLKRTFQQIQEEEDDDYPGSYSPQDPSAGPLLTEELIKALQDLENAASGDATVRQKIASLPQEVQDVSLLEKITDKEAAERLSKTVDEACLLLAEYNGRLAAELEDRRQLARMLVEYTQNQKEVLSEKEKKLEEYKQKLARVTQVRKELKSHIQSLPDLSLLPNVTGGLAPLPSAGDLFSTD
UniProt Q9CZX9, whole entry: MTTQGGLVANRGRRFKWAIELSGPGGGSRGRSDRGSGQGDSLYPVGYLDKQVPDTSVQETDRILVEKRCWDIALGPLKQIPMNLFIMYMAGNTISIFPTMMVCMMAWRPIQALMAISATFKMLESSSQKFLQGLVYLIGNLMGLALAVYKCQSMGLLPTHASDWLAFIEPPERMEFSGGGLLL
UniProt Q9CXE7: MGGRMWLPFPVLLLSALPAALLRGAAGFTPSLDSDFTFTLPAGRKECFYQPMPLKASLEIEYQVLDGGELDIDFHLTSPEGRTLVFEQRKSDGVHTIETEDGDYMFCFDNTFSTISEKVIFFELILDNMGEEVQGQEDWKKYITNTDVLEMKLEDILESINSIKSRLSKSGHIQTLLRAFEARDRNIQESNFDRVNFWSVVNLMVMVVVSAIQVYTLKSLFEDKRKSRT
UniProt Q9CZL2: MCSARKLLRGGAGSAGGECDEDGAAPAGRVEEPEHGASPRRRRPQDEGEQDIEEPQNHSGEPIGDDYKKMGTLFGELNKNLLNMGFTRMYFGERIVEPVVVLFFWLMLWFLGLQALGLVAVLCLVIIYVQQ
UniProt Q9CZN7: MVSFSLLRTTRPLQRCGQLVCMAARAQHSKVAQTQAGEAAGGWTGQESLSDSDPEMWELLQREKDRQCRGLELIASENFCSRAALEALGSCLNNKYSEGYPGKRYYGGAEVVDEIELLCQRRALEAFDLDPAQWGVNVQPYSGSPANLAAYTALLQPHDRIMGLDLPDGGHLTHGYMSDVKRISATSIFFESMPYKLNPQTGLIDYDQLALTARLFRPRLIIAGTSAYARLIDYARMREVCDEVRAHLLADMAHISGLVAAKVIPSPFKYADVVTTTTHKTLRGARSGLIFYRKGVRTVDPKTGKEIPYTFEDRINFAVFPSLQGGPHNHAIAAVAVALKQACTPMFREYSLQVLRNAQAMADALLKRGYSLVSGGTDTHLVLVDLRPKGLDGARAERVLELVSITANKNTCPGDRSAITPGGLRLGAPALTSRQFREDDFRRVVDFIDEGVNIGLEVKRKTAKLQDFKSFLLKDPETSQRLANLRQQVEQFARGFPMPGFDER
UniProt Q9CYS6: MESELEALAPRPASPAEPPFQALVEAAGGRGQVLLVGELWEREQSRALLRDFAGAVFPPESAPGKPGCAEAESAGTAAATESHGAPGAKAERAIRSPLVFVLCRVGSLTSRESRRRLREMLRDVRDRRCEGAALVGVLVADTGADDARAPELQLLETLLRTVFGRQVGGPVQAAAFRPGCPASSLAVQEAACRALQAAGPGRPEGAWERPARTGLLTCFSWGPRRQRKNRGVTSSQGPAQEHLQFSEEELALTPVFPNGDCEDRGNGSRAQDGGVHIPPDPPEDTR
UniProt Q9CRB3: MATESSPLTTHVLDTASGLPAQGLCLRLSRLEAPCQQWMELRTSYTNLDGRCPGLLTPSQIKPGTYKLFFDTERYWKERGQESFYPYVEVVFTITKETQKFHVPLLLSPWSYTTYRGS
UniProt Q9CYZ6: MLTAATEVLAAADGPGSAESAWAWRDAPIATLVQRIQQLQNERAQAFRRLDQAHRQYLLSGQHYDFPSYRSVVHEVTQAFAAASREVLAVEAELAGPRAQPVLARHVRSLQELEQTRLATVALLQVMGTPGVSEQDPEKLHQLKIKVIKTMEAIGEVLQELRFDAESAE
UniProt Q9CXX9: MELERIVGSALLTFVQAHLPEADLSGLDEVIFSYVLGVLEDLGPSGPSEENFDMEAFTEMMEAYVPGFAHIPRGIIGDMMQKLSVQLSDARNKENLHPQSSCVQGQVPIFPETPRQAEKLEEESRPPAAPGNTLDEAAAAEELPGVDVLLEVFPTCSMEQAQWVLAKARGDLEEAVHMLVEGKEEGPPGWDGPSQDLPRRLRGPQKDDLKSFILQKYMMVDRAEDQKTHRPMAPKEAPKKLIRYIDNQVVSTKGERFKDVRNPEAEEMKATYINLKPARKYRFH

Compound in this experiment: CN[C@@H]1C[C@H]2O[C@@](C)([C@@H]1OC)n1c3ccccc3c3c4c(c5c6ccccc6n2c5c31)C(=O)NC4 [staurosporine]
The experiment is described as follows: log2 fold change of tryptic peptide abundance, ligand vs vehicle (limited proteolysis) (log2 ratio); higher = more trypsin-susceptible (destabilized). Particulars: ligand concentration: 20 uM; sample: mouse liver crude lysate; replicate design: treated separately.
Take “UniProt Q9CWU2 (peptide sequence: HGICVHENK, peptide start residue: 25)”: the log2 fold change was determined as 0.0809.
On to “UniProt Q9CY28 (peptide sequence: CFIADITGSLK, peptide start residue: 275)”, for which the log2 fold change was 0.161.
As for “UniProt Q9D0K2 (peptide sequence: DGSVAIASKPR, peptide start residue: 177)”, the log2 fold change is -0.323.
Next, “UniProt Q9CZX0 (peptide sequence: GTGLYELWK, peptide start residue: 325)”: 0.363; “UniProt Q9CWU6 (peptide sequence: IIEAMGFTGPLK, peptide start residue: 92)”: -0.448; “UniProt Q9D0D4 (peptide sequence: VQGTPLASK, peptide start residue: 98)”: -0.278.
The value for “UniProt Q9CS42 (peptide sequence: MVLVGDVK, peptide start residue: 205)” was 0.102; that for “UniProt Q9D0V8 (peptide sequence: GICELENYHYR, peptide start residue: 118)” was -0.888; that for “UniProt Q9CWX4 (peptide sequence: VPTNPVQR, peptide start residue: 64)” was 0.172.
Take “UniProt Q9CRC0 (peptide sequence: ARDENYR, peptide start residue: 34)”: the log2 fold change was found to be 0.657.
With “UniProt Q9CXT6 (peptide sequence: VVAVLQTHQLPGKQPAR, peptide start residue: 138)”, the log2 fold change is 0.0238.
On to “UniProt Q9CWY3 (peptide sequence: ARVSGGSPLVAPCPSPR, peptide start residue: 8)”, for which the log2 fold change was determined as 0.492.
The value for “UniProt Q9CX00 (peptide sequence: RFEELKK, peptide start residue: 150)” was 0.165; that for “UniProt Q9CZT8 (peptide sequence: LVDAICDK, peptide start residue: 179)” was 0.0775; that for “UniProt Q9D0L1 (peptide sequence: QALKQEAQSVEQER, peptide start residue: 160)” was -0.115.
Turning to “UniProt Q9CU65 (peptide sequence: LTTCTGCR, peptide start residue: 532)”, the log2 fold change is -0.421.
As for “UniProt Q9D0F3 (peptide sequence: RYVSSLTEEISR, peptide start residue: 369)”, the log2 fold change was -0.461.
Consider “UniProt Q9CXL3 (peptide sequence: QKITPAEETPR, peptide start residue: 19)”, for which the log2 fold change is -0.195.
Turning to “UniProt Q9CXC3 (peptide sequence: LEEYTEK, peptide start residue: 322)”, the log2 fold change was determined as 0.257.
For “UniProt Q9D0A3 (peptide sequence: KVNTGFLMSSYK, peptide start residue: 90)”, the log2 fold change amounted to 0.15.
Turning to “UniProt Q9CRA8 (peptide sequence: RADANLLTDTGTESSPR, peptide start residue: 6)”, the log2 fold change is -0.132.
“UniProt Q9D110 (peptide sequence: VIAHNQYQNSK, peptide start residue: 40)”: the log2 fold change was -0.112.
As for “UniProt Q9CRC9 (peptide sequence: TLAMDTILANAK, peptide start residue: 161)”, the log2 fold change is -0.198.
For the target “UniProt Q9CSU0 (peptide sequence: ITDKEAAER, peptide start residue: 217)”, the log2 fold change was -0.104.
Next, “UniProt Q9CZX9 (peptide sequence: FKWAIELSGPGGGSR, peptide start residue: 15)”: 0.0837; “UniProt Q9CXE7 (peptide sequence: SGHIQTLLR, peptide start residue: 170)”: -0.297.
In the case of “UniProt Q9CZL5 (peptide sequence: AAGWSELSER, peptide start residue: 55)”, the log2 fold change was -0.182.
As to “UniProt Q9CZL2 (peptide sequence: VEEPEHGASPR, peptide start residue: 30)”, the log2 fold change came out at 0.173.
The value for “UniProt Q9CX86 (peptide sequence: AVSREDSARPGAHAK, peptide start residue: 82)” was -1.02.
On to “UniProt Q9CZN7 (peptide sequence: LGAPALTSR, peptide start residue: 426)”, for which the log2 fold change was -0.139.
For “UniProt Q9CZD0 (peptide sequence: DAVTPEER, peptide start residue: 207)”, the log2 fold change amounted to 0.0475.
The value for “UniProt Q9CYS6 (peptide sequence: AQDGGVHIPPDPPEDTR, peptide start residue: 270)” was -0.467.
As for “UniProt Q9CRB3 (peptide sequence: TSYTNLDGR, peptide start residue: 43)”, the log2 fold change was -0.386.
As for “UniProt Q9CYZ6 (peptide sequence: RLDQAHR, peptide start residue: 49)”, the log2 fold change was found to be 0.479.
For the target “UniProt Q9CXX9 (peptide sequence: THRPMAPK, peptide start residue: 228)”, the log2 fold change was -0.351.
Turning to “UniProt Q9CR57 (peptide sequence: CMQLTDFILKFPHSAR, peptide start residue: 54)”, the log2 fold change turned out to be 0.146.
